From paper PMC7369900 (International Journal of Molecular Sciences, 2020)
Some peptides are written in HELM: one residue between dots, names in brackets for other building blocks, links after the first $.

Experiment: general procedure: Fmoc solid-phase peptide synthesis; TentaGel S RAM resin (substitution 0.24 meq/g, Rapp Polymere); N,N′-diisopropylcarbodiimide (manual attachment of Boc-CIP and LVX)

Substance	isolated yield (whole synthesis, total yield, scale of the general procedure 50 μmole)	conjugation yield (conjugation step)
PEPTIDE1{C.A.G.Y.L.L.G.K.I.N.L.K.A.L.A.A.L.A.K.K.I.L.[am]}|PEPTIDE2{C.[CIP-N]}$PEPTIDE1,PEPTIDE2,1:R3-1:R3$$$V2.0	19%	
PEPTIDE1{C.A.G.Y.L.L.G.K.I.N.L.K.A.L.A.A.L.A.K.K.I.L.[am]}|PEPTIDE2{[LVX-CO].C}$PEPTIDE1,PEPTIDE2,1:R3-2:R3$$$V2.0		20%
